Primary screen of a compound library

The chains behind the UniProt entries cited, without tags or fusion partners.
UniProt E9BF75, entry or part of it: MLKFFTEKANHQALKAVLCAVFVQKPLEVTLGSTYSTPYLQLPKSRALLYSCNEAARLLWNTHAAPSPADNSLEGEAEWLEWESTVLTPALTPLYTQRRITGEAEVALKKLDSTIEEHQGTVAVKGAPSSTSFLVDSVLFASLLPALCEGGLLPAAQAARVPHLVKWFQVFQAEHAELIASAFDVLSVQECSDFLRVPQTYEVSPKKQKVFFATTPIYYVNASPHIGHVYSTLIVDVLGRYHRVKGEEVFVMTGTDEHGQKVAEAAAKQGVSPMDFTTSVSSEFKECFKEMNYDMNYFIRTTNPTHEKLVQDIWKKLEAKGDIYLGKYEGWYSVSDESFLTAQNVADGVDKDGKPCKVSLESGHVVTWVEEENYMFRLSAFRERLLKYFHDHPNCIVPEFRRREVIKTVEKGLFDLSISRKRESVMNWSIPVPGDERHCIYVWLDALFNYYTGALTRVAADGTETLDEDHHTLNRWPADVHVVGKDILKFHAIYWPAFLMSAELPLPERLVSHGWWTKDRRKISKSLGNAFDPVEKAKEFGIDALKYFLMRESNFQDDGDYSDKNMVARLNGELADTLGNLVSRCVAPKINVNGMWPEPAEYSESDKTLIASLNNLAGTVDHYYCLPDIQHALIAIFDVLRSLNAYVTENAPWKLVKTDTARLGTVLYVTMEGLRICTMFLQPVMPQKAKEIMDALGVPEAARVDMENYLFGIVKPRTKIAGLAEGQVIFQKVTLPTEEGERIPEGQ

From ChEMBL document CHEMBL3988442, “University of Dundee, Small-Polar-MMV Screening Library” (2021).

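Methionyl-tRNA synthetase (putative), Leishmania donovani (UniProt E9BF75). Primary screen of methionyl-tRNA synthetase; the read-out is not stated. The test concentration is not given. Values are per cent inhibition. About 68,000 compounds were tested under these conditions; 0.035% (about 24) showed 50% or more at least once.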

All values are in %. How 0% and 100% were set is not recorded. Most values in the screen are low, and negative values occur. This is an unselected part of the compounds tested.

| # | SMILES | inhibition |
|---|---|---|
| 1 | `CN(C)[C@@H]1C[C@@H](CO)N(C(=O)Nc2ccc(SC(F)(F)F)cc2)C1` | 13.56 |
| 2 | `CS(=O)(=O)N1CC[C@]2(C[C@H](Oc3ccccn3)CO2)C1` | 9.589 |
| 3 | `Cc1cn2c(n1)CCC(NS(=O)(=O)c1sc(C)nc1C)C2` (centres undefined) | 8.075 |
| 4 | `O=C1CCC(c2nc(C3CCN(C(=O)C4CC4)CC3)no2)N1` (centres undefined) | 16.04 |
| 5 | `CC(C)CCNC(=O)c1ccc(Cl)c(NS(C)(=O)=O)c1` | 16.49 |
| 6 | `CN1CCC(N(C)C[C@H]2CC[C@@H](Cc3ccc4occc4c3)O2)CC1` | 16.85 |
| 7 | `COc1ccccc1C(C)CC(=O)N1CC[C@H](O)C1` (some centres undefined) | 7.902 |
| 8 | `COC(=O)[C@H]1CN(C(=O)NC(C)C)CCN1C(=O)C1CCCCC1` | 4.396 |
| 9 | `CS(=O)(=O)N1CCC(NC(=O)COc2cccc(Cl)c2)CC1` | 18.03 |
| 10 | `COc1ccc(C2Nc3cc(Cl)ccc3C3=NCCN32)cc1CO` (centres undefined) | 7.12 |
| 11 | `Cc1cccc2c1N(C)C(=O)C21CC(=O)Nc2c1cnn2C(C)(C)C` (centres undefined) | 6.232 |
| 12 | `Cc1cc(F)ccc1S(=O)(=O)NCc1[nH]ncc1Br` | 8.807 |
| 13 | `O=C1[C@@H]2CN(c3ncnc4[nH]ccc34)C[C@]2(C(=O)O)CN1CC1CC1` | 9.207 |
| 14 | `C[C@@H](NCc1cccc(Cl)c1)c1onc(-c2ccc(F)cc2)c1C(=O)O` | 10.53 |
| 15 | `CC(C)(C)CC(=O)N1[C@@H](c2ccco2)[C@@H](CO)C[C@]12CCCCNC2=O` | 10.14 |
| 16 | `NC(=O)N1CCC2(CCN(C(=O)c3cccnc3)CC2)C1` | 12.92 |
| 17 | `O=C(N[C@@H]1CC[C@@H](N2CCOCC2)[C@@H]1O)c1cnn2cccnc12` | -0.6431 |
| 18 | `CN1CCN(Cc2cnc3n2CCN(C(=O)c2ccnnc2)C3)CC1` | 14.29 |
| 19 | `Cc1cc(C2CCCN(C(=O)COc3cc(F)ccc3F)C2)n[nH]1` (centres undefined) | 11.35 |
| 20 | `CN(Cc1cc(Br)cn1C)C(=O)c1ccon1` | 11.29 |
| 21 | `c1ccc(-c2ncc(CN3CCCCC3CCn3cccn3)cn2)nc1` (centres undefined) | 13.33 |
| 22 | `O=C(Nc1ccnc(OC2CCOC2)c1)c1ccc(F)cc1Cl` (centres undefined) | 5.435 |
| 23 | `COc1c(C)cnc(CNC(=O)CCOCc2ccccc2)c1C` | 20.62 |
| 24 | `Cc1ccc(C(=O)NCCSCc2cccs2)cn1` | 4.762 |
| 25 | `CS(=O)(=O)N1CC[C@H]2O[C@@H](C(=O)NCc3ccco3)CC[C@H]21` | 3.704 |
| 26 | `COc1ccc(OC)c(C(=O)N(C)Cc2nnc3ccccn23)c1` | 21.55 |
| 27 | `Cc1cccc(C2(C(=O)NC(C)Cn3ccnc3)CC2)c1` (centres undefined) | 17.88 |
| 28 | `CC(=O)c1ccc(N2CCC(CO)(CCOc3ccccc3)CC2)nc1` | 14.17 |
| 29 | `CCN(Cc1ccc(S(C)(=O)=O)cc1)Cc1nc(COC)no1` | 13.43 |
| 30 | `CC(C)OCCSCc1nnc(-c2cccc(F)c2)o1` | 10.92 |
| 31 | `CC(C)OCCCN(Cc1ccncc1)Cc1cccc(F)c1F` | 4.502 |
| 32 | `CC(=O)N(Cc1ncc(C)o1)C1CCN(Cc2cc(C)on2)C1` (centres undefined) | 20.99 |
| 33 | `Cc1nccn1-c1cc(CNS(=O)(=O)N2CCCC(C)C2)ccn1` (centres undefined) | 12.24 |
| 34 | `CSCCC(=O)N1CCN(CC(O)C(C)(C)C)CC1` (centres undefined) | 6.344 |
| 35 | `O=C(Nc1cccs1)NC(CCCO)c1ccccc1` (centres undefined) | 13.8 |
| 36 | `CCOc1no[n+]([O-])c1-c1ccccc1` | 10.5 |
| 37 | `CC1CCN(CCCNC(=O)c2ccc(N(C)S(C)(=O)=O)cc2Cl)CC1` | 8.447 |
| 38 | `Cc1ccc(CNC(CN2CCN(C)CC2)c2ccccc2)cc1C` (centres undefined) | 16.38 |
| 39 | `CCn1cc(N2Cc3nc(N4CCC(C)CC4)ncc3C2=O)cn1` | 10.3 |
| 40 | `CCN(Cc1ccc(OC)c(F)c1)Cc1nc2c(cnn2C)c(=O)[nH]1` | 19.34 |
| 41 | `COc1ccc2c(c1)C(C(=O)N(C)CCc1cnn(C)c1)CC(=O)N2` (centres undefined) | -1.229 |
| 42 | `COCCn1cncc1Cn1ncc2ccccc2c1=O` | 10.7 |
| 43 | `CC(NCC1(N(C)C)CCOCC1)c1ccc(Cl)cc1` (centres undefined) | 15.26 |
| 44 | `Cc1nn(C)c(N2CCOCC2)c1CN[C@@H]1c2ccccc2C[C@@H]1O` | 23.94 |
| 45 | `CN(C)CCN(C)c1ccc(-c2nc(COc3ccccc3)no2)cn1` | 11.6 |
| 46 | `N#Cc1nccnc1NC1CCN(c2ccccc2Br)C1` (centres undefined) | 10.47 |
| 47 | `CCn1ncc(C(=O)NCCc2nc(-c3cccnc3)n[nH]2)c1C` | 8.511 |
| 48 | `c1cc(-c2noc(-c3cc(C4CC4)[nH]n3)n2)cc(N2CCCCC2)n1` | 20.91 |
| 49 | `Cc1ccc(N2CCCC(NCc3cnc(C)s3)C2)nn1` (centres undefined) | 9.117 |
| 50 | `COCC1c2c(cnn2C)CCN1Cc1ccco1` (centres undefined) | 0.2882 |
| 51 | `Cc1cccc(CN2CC3(CCNCC3)OCC2=O)n1` | 12.38 |
| 52 | `CC(=O)N1CC(=O)N(c2cnn(C)c2)CC12CCN(Cc1ccsc1)C2` (centres undefined) | 7.619 |
| 53 | `COCCOCC(=O)Nc1ccc(Br)cc1F` | 9.155 |
| 54 | `O=C1OCCN1Cc1cc(C(F)(F)F)ccc1F` | 8.824 |
| 55 | `COc1ncnc2c1CCN(c1cccc(F)c1)CC2` | -4.261 |
| 56 | `CCN(CCCNC(=O)c1cc2cccc(F)c2o1)S(C)(=O)=O` | 9.341 |

For reference, 4 entries once more:

{"smiles": "CC(C)CCNC(=O)c1ccc(Cl)c(NS(C)(=O)=O)c1", "inhibition": 16.49}
{"smiles": "CC(=O)c1ccc(N2CCC(CO)(CCOc3ccccc3)CC2)nc1", "inhibition": 14.17}
{"smiles": "O=C(Nc1cccs1)NC(CCCO)c1ccccc1", "stereo": "centres undefined", "inhibition": 13.8}
{"smiles": "CC(=O)N1CC(=O)N(c2cnn(C)c2)CC12CCN(Cc1ccsc1)C2", "stereo": "centres undefined", "inhibition": 7.619}